Results deposited as PubChem BioAssay AID1259254 (NCATS, 2017)
The deposit covers about 59,000 reagents; shown is a random part of them. About 1,550 of all reagents (2.6%) were called active. 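G2 share is only a proxy for re-replication; each gene was hit by three separate siRNAs, and active genes were retested.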 Entries without a mark were called inactive. The numbers tell different reagents against one gene apart. Further read-outs or replicates are left out here. The record does not give: the amount of reagent.

Aim: 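Gene knock-downs that lead to re-replication, shown by excess G2 DNA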 (primary screen)
System: human HCT116 colorectal cancer cells
Knock-down reagent: single siRNA against human genes
Time to read-out: 3 days
Measured: 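Nuclei stained with Hoechst and imaged; cell-cycle phase assigned by DNA content; G2 share scaled per plate, non-targeting siRNA 0%, GMNN siRNA 100%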
Scale: G2 robust z-score: higher = more G2 cells, more excess DNA replication
Active means: 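Active siRNAs have a G2 robust z of 5 or more median absolute deviations over the median, which in these data means about 38% or higher of GMNN control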

{"target": "PSEN1 (presenilin 1)", "siRNA no.": 1, "G2 robust z-score": 0.681}
{"target": "PSEN1 (presenilin 1)", "siRNA no.": 2, "G2 robust z-score": 0.719}
{"target": "PSEN1 (presenilin 1)", "siRNA no.": 3, "G2 robust z-score": -0.75}
{"target": "RPLP2P1 (ribosomal protein lateral stalk subunit P2 pseudogene 1)", "siRNA no.": 1, "G2 robust z-score": -0.387}
{"target": "RPLP2P1 (ribosomal protein lateral stalk subunit P2 pseudogene 1)", "siRNA no.": 2, "G2 robust z-score": -0.941}
{"target": "RPLP2P1 (ribosomal protein lateral stalk subunit P2 pseudogene 1)", "siRNA no.": 3, "G2 robust z-score": -0.942}
{"target": "PNMA6E (PNMA family member 6E)", "siRNA no.": 1, "G2 robust z-score": -0.0613}
{"target": "PNMA6E (PNMA family member 6E)", "siRNA no.": 2, "G2 robust z-score": 0.233}
{"target": "PNMA6E (PNMA family member 6E)", "siRNA no.": 3, "G2 robust z-score": 0.149}
{"target": "PLAC9 (placenta associated 9)", "siRNA no.": 1, "G2 robust z-score": -0.258}
{"target": "PLAC9 (placenta associated 9)", "siRNA no.": 2, "G2 robust z-score": -0.102}
{"target": "PLAC9 (placenta associated 9)", "siRNA no.": 3, "G2 robust z-score": -0.88}
{"target": "SFI1 (SFI1 centrin binding protein)", "siRNA no.": 1, "G2 robust z-score": 2.24}
{"target": "SFI1 (SFI1 centrin binding protein)", "siRNA no.": 2, "G2 robust z-score": 2.02}
{"target": "SFI1 (SFI1 centrin binding protein)", "siRNA no.": 3, "G2 robust z-score": -0.776}
{"target": "F12 (coagulation factor XII)", "siRNA no.": 1, "G2 robust z-score": -0.635}
{"target": "F12 (coagulation factor XII)", "siRNA no.": 2, "G2 robust z-score": 2}
{"target": "F12 (coagulation factor XII)", "siRNA no.": 3, "G2 robust z-score": 2.2}
{"target": "TRPT1 (tRNA phosphotransferase 1)", "siRNA no.": 1, "G2 robust z-score": -0.815}
{"target": "TRPT1 (tRNA phosphotransferase 1)", "siRNA no.": 2, "G2 robust z-score": -0.309}
{"target": "TRPT1 (tRNA phosphotransferase 1)", "siRNA no.": 3, "G2 robust z-score": 3.39}
{"target": "H2BC14 (H2B clustered histone 14)", "siRNA no.": 1, "G2 robust z-score": -0.891}
{"target": "H2BC14 (H2B clustered histone 14)", "siRNA no.": 2, "G2 robust z-score": 2.51}
{"target": "H2BC14 (H2B clustered histone 14)", "siRNA no.": 3, "G2 robust z-score": 4.98}
{"target": "KRT34 (keratin 34)", "siRNA no.": 1, "G2 robust z-score": -0.626}
{"target": "KRT34 (keratin 34)", "siRNA no.": 2, "G2 robust z-score": -0.7}
{"target": "KRT34 (keratin 34)", "siRNA no.": 3, "G2 robust z-score": -0.137}
{"target": "DMRTB1 (DMRT like family B with proline rich C-terminal 1)", "siRNA no.": 1, "G2 robust z-score": -0.819}
{"target": "DMRTB1 (DMRT like family B with proline rich C-terminal 1)", "siRNA no.": 2, "G2 robust z-score": -0.105}
{"target": "DMRTB1 (DMRT like family B with proline rich C-terminal 1)", "siRNA no.": 3, "G2 robust z-score": "6.47 (active)"}
